Reference: PubChem BioAssay AID192 (DTP/NCI, 2004)
The list is a part of this screen's results and no random one: it is rich in T/C values a quarter to a half above the control, in often repeated tests (any T/C) and in doses without a T/C. Other doses and runs of a compound stand elsewhere. T/C gives the treated animals as a percentage of the vehicle group. Some doses have a count of surviving animals in place of a T/C: the source holds a T/C of zero for them, seemingly a mark for toxic or unscored doses. Some survivor counts are full or nearly so, which does not show that the dose was tolerated: survival well below the control is almost never listed, so the zero probably covers shortened survival too. Survivors were counted at the toxicity check, usually on the fifth day, unless a day is given; later deaths do not show. Schedules are NCI's codes, read here as Q, the interval in days (D) or hours (H), X, the number of doses. Some entries hold several experiments; their values stand side by side, smallest first. Where survival is the endpoint, this PubChem deposit counts one and a half times the control or more as active, and values a quarter to a half above the control carry no call in these data; other NCI protocols may use other cut-offs. Peptide text beside a SMILES is read from it. * marks the point of attachment. Boc = CC(C)(C)OC(=O)*

Tested on: BDF1 mice, B16 melanoma ip, median survival T/C
Test: NCI In Vivo Anticancer Drug Screen. Data for tumor model B16 Melanoma (intraperitoneal) in B6D2F1 (BDF1) mice
Details: T/C endpoint: median survival time, higher T/C = longer survival
Method in brief: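 Each result divides a survival or tumor-size measurement in the compound-treated group by the same measurement in the vehicle group.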

[1] = dose: 50.0 mg/kg/injection, schedule: Q01DX009 (ip), vehicle: Klucel (hydroxypropylcellulose) (HPC)
[2] = dose: 100.0 mg/kg/injection, schedule: Q01DX009 (ip), vehicle: Klucel (hydroxypropylcellulose) (HPC)
[3] = dose: 12.5 mg/kg/injection, schedule: Q01DX009 (ip), vehicle: saline
[4] = dose: 100.0 mg/kg/injection, schedule: Q01DX009 (ip), vehicle: saline
[5] = dose: 200.0 mg/kg/injection, schedule: Q01DX009 (ip), vehicle: saline
[6] = dose: 6.25 mg/kg/injection, schedule: Q01DX009 (ip), vehicle: saline with Tween-80
[7] = dose: 12.5 mg/kg/injection, schedule: Q01DX009 (ip), vehicle: saline with Tween-80
[8] = dose: 200.0 mg/kg/injection, schedule: Q01DX009 (ip), vehicle: Klucel (hydroxypropylcellulose) (HPC)
[9] = dose: 400.0 mg/kg/injection, schedule: Q01DX009 (ip), vehicle: Klucel (hydroxypropylcellulose) (HPC)
[10] = dose: 400.0 mg/kg/injection, schedule: Q01DX009 (ip), vehicle: saline

How did the survivor count (dose: 300.0 mg/kg/injection, schedule: Q04DX003 (ip), vehicle: Klucel (hydroxypropylcellulose) (HPC)) turn out when `C=C(CCCCC)C(=O)/C=C/c1ccc(Cl)cc1` was run?
Its survivor count is 10 of 10.

`O=C1N(Cl)C(=O)C(c2ccc(Cl)cc2)(c2ccc(Cl)cc2)N1Cl` was tested. Which survivor count [1] did it give?
Its survivor count is 9 of 10.

And the survivor count [2]?
Its survivor count is 9 of 10.

What does the source list for `CCOc1c(Br)cc(Br)cc1/C=N/NS(=O)(=O)c1ccc(C)cc1`?
survivor count (dose: 75.0 mg/kg/injection, schedule: Q04DX003 (ip), vehicle: Klucel (hydroxypropylcellulose) (HPC)): 10 of 10; survivor count [2]: 10 of 10; survivor count (dose: 115.0 mg/kg/injection, schedule: Q04DX003 (ip), vehicle: Klucel (hydroxypropylcellulose) (HPC)): 10 of 10; survivor count (dose: 255.0 mg/kg/injection, schedule: Q04DX003 (ip), vehicle: Klucel (hydroxypropylcellulose) (HPC)): 9 of 10; survivor count (dose: 385.0 mg/kg/injection, schedule: Q04DX003 (ip), vehicle: Klucel (hydroxypropylcellulose) (HPC)): 10 of 10

Which results are given for `C1CC[N-]CC1.C1CC[N-]CC1.C1CC[N-]CC1.C1CC[N-]CC1.[Cl][Co][Cl]`?
survivor count (dose: 150.0 mg/kg/injection, schedule: Q01DX009 (ip), vehicle: saline with Tween-80): 3 of 10; survivor count (dose: 300.0 mg/kg/injection, schedule: Q01DX009 (ip), vehicle: saline with Tween-80): 0 of 10

What does the source list for `CN(C)CCOc1ccccc1Cc1ccccc1`?
survivor count [3]: 3 of 10; survivor count [4]: 7 of 10; survivor count [5]: 6 of 10

With `Cc1c(CNc2ccc(C(=O)NC(CC(=O)O)C(=O)O)cc2)ccc2nc(N)nc(N)c12` (stereo not drawn) as the molecule, how does the survivor count (dose: 0.39 mg/kg/injection, schedule: Q01DX009 (ip), vehicle: saline) read?
The survivor count was 10 of 10.

And the survivor count (dose: 0.78 mg/kg/injection, schedule: Q01DX009 (ip), vehicle: saline)?
Its survivor count is 8 of 10 and 10 of 10.

And the survivor count (dose: 1.56 mg/kg/injection, schedule: Q01DX009 (ip), vehicle: saline with Tween-80)?
The survivor count was 10 of 10.

What about the survivor count (dose: 1.56 mg/kg/injection, schedule: Q01DX009 (ip), vehicle: saline) of the same molecule?
The survivor count was 7 of 10 and 8 of 10.

And the survivor count (dose: 3.12 mg/kg/injection, schedule: Q01DX009 (ip), vehicle: saline with Tween-80)?
Its survivor count is 8 of 10.

And the survivor count (dose: 3.12 mg/kg/injection, schedule: Q01DX009 (ip), vehicle: saline)?
The survivor count was 6 of 10.

And the survivor count [6]?
Its survivor count is 9 of 10.

What about the survivor count (dose: 6.25 mg/kg/injection, schedule: Q01DX009 (ip), vehicle: saline) of the same molecule?
Its survivor count is 4 of 10.

What about the survivor count [7] of the same molecule?
The survivor count was 10 of 10.

And the survivor count [3]?
Its survivor count is 0 of 10.

And the survivor count (dose: 25.0 mg/kg/injection, schedule: Q01DX009 (ip), vehicle: saline with Tween-80)?
Its survivor count is 9 of 10.

What about the survivor count (dose: 25.0 mg/kg/injection, schedule: Q01DX009 (ip), vehicle: saline) of the same molecule?
The survivor count was 5 of 10.

Which survivor count [8] does the source give for `c1cc(OCC2CO2)ccc1OCC1CO1` (stereo not drawn) here?
Its survivor count is 8 of 10.

What about the survivor count [9] of the same molecule?
Its survivor count is 1 of 10.

For `O=C1C=C(c2ccccc2)C(=O)C=C1c1ccccc1`, which survivor count (dose: 50.0 mg/kg/injection, schedule: Q04DX003 (ip), vehicle: gum acacia) is on record?
The survivor count was 10 of 10.

And the survivor count (dose: 100.0 mg/kg/injection, schedule: Q04DX003 (ip), vehicle: gum acacia)?
Its survivor count is 10 of 10.

Which results are given for `c1ccc(-c2nc3cnccc3o2)cc1`?
survivor count (dose: 25.0 mg/kg/injection, schedule: Q04DX003 (ip), vehicle: Klucel (hydroxypropylcellulose) (HPC)): 9 of 10; survivor count (dose: 50.0 mg/kg/injection, schedule: Q04DX003 (ip), vehicle: Klucel (hydroxypropylcellulose) (HPC)): 8 of 10

Which survivor count (dose: 3.13 mg/kg/injection, schedule: Q01DX009 (ip), vehicle: saline with Tween-80) does the source give for `CCc1cccc(CC)c1N1C(=O)C=CC1=O` here?
The survivor count was 10 of 10.

What about the survivor count [6] of the same molecule?
Its survivor count is 10 of 10.

And the survivor count [7]?
Its survivor count is 9 of 9.

How did the T/C [2] turn out when `O=C1N[C@H]2[C@H](CS[C@H]2CCCCC(=O)N(CCP(c2ccccc2)c2ccccc2)CCP(c2ccccc2)c2ccccc2)N1` was run?
Its T/C is 136 % of control.

For `CN1CCN=C(c2ccccc2)c2cc(Cl)ccc21`, which survivor count [5] is on record?
The survivor count was 0 of 10.

And the survivor count [10]?
Its survivor count is 0 of 10.

`Clc1ccc2c(c1)-c1ccccc1C1=NCCN12` was tested. Which survivor count (dose: 20.0 mg/kg/injection, schedule: Q01DX009 (ip), vehicle: saline) did it give?
Its survivor count is 7 of 10.

And the survivor count (dose: 40.0 mg/kg/injection, schedule: Q01DX009 (ip), vehicle: saline)?
The survivor count was 0 of 10.

For `O=C(O)c1ccccc1C(=O)Nc1cc(Cl)ccc1Cl`, which survivor count [8] is on record?
Its survivor count is 10 of 10.

What does the source list for `CCCC[N+](CCCC)(CCCC)CCCC.Cc1ccc([SH2+])c([SH2+])c1.Cc1ccc([SH2+])c([SH2+])c1.[Fe+3]`?
survivor count [9]: 10 of 10; survivor count (dose: 400.0 mg/kg/injection, schedule: Q01DX009 (ip), vehicle: saline with Tween-80): 10 of 10

Which survivor count [3] does the source give for `CNC(=O)Oc1cccn(C(=O)NC)c1=O` here?
The survivor count was 10 of 10.

What about the survivor count (dose: 50.0 mg/kg/injection, schedule: Q01DX009 (ip), vehicle: saline) of the same molecule?
The survivor count was 10 of 10.

What about the survivor count (dose: 75.0 mg/kg/injection, schedule: Q01DX009 (ip), vehicle: saline) of the same molecule?
Its survivor count is 10 of 10.

And the survivor count [4]?
The survivor count was 10 of 10.

And the survivor count (dose: 150.0 mg/kg/injection, schedule: Q01DX009 (ip), vehicle: saline)?
Its survivor count is 7 of 10 and 9 of 10.

`Cc1cccc(C)c1NC(=S)N(C)C` was tested. Which survivor count (dose: 25.0 mg/kg/injection, schedule: Q01DX009 (ip), vehicle: Klucel (hydroxypropylcellulose) (HPC)) did it give?
Its survivor count is 9 of 10.

What about the survivor count [1] of the same molecule?
Its survivor count is 6 of 10.

And the survivor count [2]?
The survivor count was 0 of 10.

And the survivor count [8]?
Its survivor count is 0 of 10.

And the survivor count [9]?
The survivor count was 0 of 10.

`Nc1ncnc2c1cnn2C1OC(CO)C(O)C1O` (stereo not drawn) was tested. Which survivor count (dose: 50.0 mg/kg/injection, schedule: Q01DX009 (ip), vehicle: saline with Tween-80) did it give?
Its survivor count is 9 of 10.

Which results are given for `CC(C)(C)OC(=O)NCC(=O)NCC(=O)O` (Boc-Gly-Gly-OH)?
survivor count [5]: 10 of 10; survivor count [10]: 10 of 10

Which results are given for `CC(C)([NH-])CO.CC(C)([NH-])CO.[Cl][Cd][Cl]`?
survivor count (dose: 2.5 mg/kg/injection, schedule: Q01DX009 (ip), vehicle: saline): 10 of 10; survivor count (dose: 5.0 mg/kg/injection, schedule: Q01DX009 (ip), vehicle: saline): 10 of 10; survivor count (dose: 10.0 mg/kg/injection, schedule: Q01DX009 (ip), vehicle: saline): 9 of 10
